# Laboratory results reported in PMC10964683.
# Protein sequences, listed by entry. Tags and fused reporters are not part of them. Lines headed by an entry give the natural chain unless they say otherwise; changes in a name come on top.
# UniProt Q05397: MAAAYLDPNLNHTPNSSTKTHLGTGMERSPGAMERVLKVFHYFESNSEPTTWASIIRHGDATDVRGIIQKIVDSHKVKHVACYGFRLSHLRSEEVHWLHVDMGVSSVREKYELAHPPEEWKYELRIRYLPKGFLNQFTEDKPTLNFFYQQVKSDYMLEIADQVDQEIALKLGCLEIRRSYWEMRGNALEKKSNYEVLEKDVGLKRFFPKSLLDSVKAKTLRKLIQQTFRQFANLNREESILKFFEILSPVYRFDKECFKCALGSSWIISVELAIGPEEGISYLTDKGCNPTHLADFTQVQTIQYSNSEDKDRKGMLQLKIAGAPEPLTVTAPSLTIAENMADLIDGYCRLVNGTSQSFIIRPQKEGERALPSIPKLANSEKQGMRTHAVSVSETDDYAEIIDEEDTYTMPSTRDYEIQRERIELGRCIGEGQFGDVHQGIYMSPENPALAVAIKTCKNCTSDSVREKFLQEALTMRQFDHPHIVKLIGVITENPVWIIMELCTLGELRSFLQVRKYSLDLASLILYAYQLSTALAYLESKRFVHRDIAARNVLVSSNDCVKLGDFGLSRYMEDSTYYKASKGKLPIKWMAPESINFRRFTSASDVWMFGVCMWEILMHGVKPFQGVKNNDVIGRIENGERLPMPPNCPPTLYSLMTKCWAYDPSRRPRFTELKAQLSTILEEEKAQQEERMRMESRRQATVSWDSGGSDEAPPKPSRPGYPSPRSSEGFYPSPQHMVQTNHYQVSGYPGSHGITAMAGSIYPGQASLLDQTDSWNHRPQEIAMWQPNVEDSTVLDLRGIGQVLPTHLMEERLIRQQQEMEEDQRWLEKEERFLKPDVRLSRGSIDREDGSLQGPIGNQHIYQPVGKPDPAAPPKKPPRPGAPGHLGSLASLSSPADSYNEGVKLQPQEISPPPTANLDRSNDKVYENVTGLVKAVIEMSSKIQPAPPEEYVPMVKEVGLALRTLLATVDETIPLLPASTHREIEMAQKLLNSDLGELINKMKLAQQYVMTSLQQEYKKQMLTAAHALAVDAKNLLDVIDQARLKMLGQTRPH
# UniProt P05556: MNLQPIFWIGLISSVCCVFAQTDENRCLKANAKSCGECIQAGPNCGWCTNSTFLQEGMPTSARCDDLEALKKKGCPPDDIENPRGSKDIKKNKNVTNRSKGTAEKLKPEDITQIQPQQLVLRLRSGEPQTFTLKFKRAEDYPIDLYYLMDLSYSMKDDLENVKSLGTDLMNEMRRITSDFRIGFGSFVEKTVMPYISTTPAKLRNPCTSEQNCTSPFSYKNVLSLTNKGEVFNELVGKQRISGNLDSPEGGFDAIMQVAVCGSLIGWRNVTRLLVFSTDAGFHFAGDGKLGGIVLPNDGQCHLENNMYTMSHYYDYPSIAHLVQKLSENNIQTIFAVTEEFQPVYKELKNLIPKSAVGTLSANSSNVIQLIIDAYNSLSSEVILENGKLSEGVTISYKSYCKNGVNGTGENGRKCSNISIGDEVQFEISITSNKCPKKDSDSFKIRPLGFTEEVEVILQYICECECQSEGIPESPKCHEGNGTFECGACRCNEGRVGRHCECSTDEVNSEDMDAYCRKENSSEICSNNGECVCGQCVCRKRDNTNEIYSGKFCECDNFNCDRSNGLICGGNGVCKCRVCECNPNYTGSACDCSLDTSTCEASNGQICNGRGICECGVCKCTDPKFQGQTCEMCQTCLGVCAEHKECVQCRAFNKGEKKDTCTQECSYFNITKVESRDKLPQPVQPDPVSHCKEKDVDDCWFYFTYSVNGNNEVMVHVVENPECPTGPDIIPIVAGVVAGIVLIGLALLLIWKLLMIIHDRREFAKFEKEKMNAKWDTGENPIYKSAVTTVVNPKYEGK
# No constants are given. Whether binding was seen depends on the method and setting. Binding seen in cells or lysates may run through a third protein. Some results given as binding are weak or reduced against the parent protein; the word gives no strength.
# Biological target: Focal adhesion kinase (human (endogenous in HASMCs)) (UniProt Q05397)
# Assay: co-IP; HASMC lysate incubated with primary antibody (1:100) overnight at 4 °C, Protein G Sepharose beads 1 h, washed 3 times with lysis buffer, SDS-PAGE and Western blot; which antibody precipitated is not stated
substance,measurement,value
integrin β1 (from UniProt P05556 21-798) (receptor),binding,binds
